We go through one sequence from patent US20210222166.

The chains behind the UniProt entries cited, without tags or fusion partners. Where a name states a change or a piece, a line headed by the entry shows the natural chain unless it says otherwise.
UniProt Q04609: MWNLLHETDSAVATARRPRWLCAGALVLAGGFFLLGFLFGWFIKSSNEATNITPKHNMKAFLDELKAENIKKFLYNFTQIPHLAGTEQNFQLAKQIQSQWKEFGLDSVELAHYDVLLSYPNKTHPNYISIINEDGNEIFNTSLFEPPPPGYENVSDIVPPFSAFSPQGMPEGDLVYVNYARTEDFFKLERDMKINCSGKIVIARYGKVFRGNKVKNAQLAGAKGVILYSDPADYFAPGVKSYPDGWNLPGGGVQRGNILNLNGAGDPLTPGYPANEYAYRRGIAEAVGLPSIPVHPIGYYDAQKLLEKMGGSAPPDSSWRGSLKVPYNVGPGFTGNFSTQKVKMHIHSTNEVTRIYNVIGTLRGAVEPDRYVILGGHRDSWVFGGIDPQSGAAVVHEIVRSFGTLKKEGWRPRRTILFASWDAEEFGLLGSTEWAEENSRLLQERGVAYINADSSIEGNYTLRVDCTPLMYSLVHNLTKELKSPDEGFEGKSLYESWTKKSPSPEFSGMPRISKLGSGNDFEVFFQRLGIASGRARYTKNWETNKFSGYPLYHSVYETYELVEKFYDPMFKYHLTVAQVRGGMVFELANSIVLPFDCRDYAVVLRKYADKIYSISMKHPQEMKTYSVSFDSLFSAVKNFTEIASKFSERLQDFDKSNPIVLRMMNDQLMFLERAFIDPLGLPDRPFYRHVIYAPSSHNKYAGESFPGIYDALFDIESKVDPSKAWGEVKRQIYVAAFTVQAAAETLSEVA

The data set has as its target PSMA (prostate specific membrane antigen) (UniProt Q04609). The experiment in a line: flow cytometry. Conditions: 2'-OMe with 4 LNA per strand, 5' amino C6; background uptake in LNCaP cells; protein on the cell surface; protein details: endogenous on LNCaP cells; label: …; synthetic backbone. (In general: In flow cytometry, cells or beads pass a laser one at a time.)

At least one result comes from cells or an extract, where the contact may be indirect. No signal at the amounts used counts as a negative.

Consider “CCGTCCTGAGCC / CACAGTGGACGG / GGCTCACCGATC / GATCGGACTGTG [HJ (no aptamer)]”, for which the binding result is recorded as “no binding”.
